Measurements taken from US20090123954A1, “MULTICOLOR BIOLUMINESCENT VISUALIZATION PROBE SET, OR SINGLE-MOLECULE-FORMAT MULTICOLOR BIOLUMINESCENT VISUALIZATION PROBE” (National Institute of Advanced Industrial Science and …, priority 2007, published 2009).
At least one structure is not confirmed: it was looked up by name or label, or the drawing left a doubt.

Biological target: T1, ER LBD (Homo sapiens, UniProt P03372)
T1 sequence (P03372 305-550) 1: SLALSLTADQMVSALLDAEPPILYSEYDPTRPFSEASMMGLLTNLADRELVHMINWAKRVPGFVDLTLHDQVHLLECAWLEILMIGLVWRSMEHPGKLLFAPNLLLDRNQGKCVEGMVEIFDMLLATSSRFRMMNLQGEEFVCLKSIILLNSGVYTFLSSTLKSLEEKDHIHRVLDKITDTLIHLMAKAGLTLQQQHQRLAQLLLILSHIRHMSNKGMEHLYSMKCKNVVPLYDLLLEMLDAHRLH
T1 sequence (P03372 305-550) 2: T1 sequence (P03372 305-550) 1
Assay: Estrogenicity score in COS-7 cells co-expressing pSimer-R2 and pSimer-G6
Settings: [variation of luminescence intensity at 540 nm]/[variation at 610 nm], pSimer-R2 + pSimer-G6, 20 minutes stimulation

SMILES: CC#C[C@]1(O)CC[C@H]2[C@@H]3CCC4=CC(=O)CCC4=C3[C@@H](c3ccc(N(C)C)cc3)C[C@@]21C [RU486]
- Estrogenicity score: 1.33
